# Experimental data as given in PubChem BioAssay AID2551 (National Center for Advancing Translational Sciences (NCATS), 2010).
# Protein sequences, listed by entry. Tags and fused reporters are not part of them. Lines headed by an entry give the natural chain unless they say otherwise; changes in a name come on top.
# UniProt P51450: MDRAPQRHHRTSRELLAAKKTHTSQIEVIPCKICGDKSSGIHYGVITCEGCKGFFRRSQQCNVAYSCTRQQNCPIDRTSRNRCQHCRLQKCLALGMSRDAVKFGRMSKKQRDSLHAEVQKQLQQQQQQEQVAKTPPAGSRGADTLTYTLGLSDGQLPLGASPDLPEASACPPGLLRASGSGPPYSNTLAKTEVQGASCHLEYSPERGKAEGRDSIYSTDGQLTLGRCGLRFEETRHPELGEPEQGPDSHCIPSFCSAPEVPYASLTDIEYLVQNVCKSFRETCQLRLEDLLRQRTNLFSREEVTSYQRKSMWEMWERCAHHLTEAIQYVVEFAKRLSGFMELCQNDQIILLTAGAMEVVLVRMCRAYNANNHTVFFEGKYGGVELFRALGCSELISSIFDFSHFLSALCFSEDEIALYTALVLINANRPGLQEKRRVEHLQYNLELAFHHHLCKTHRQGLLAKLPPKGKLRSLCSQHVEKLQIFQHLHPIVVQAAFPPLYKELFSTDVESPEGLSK
# Out of some 310,000 compounds screened, about 17,000 (5.5%) were called active. Inconclusive means that the source gave no clear call. Such entries were picked first, then a sample of the others. Calls follow the shape of the dose curve; as a rule, active = well fitted inhibition curve with a large enough effect; inconclusive = small, poorly fitted or top-dose-only effect, or effect the other way; inactive = no such curve, though single readings can be large or run the other way. Where the call is inconclusive, the potency comes from a doubtful curve fit.
# Molecular target: Nuclear receptor ROR-gamma (Mus musculus) (UniProt P51450)
# Assay: qHTS for inhibitors of ROR gamma transcriptional activity; also: nearly all actives have a fitted effect of over 60% in size
# Settings: Drosophila S2 Gal4-RORgamma UAS-luciferase reporter, 20 h; activity change, negative = inhibition: at 53.6 µM (top of the series)
# Procedure, shortened: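 Stably transfected Drosophila Schneider cells are the test system, with ROR gamma fused to Gal4 and luciferase under UAS control; luminescence is read after 20 hr of 700 uM copper sulfate induction at ambient temperature.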
# % is scaled to controls: 0 for no effect and ±100 for the full control effect; potency is read from the fitted curve at half-maximal effect.
SMILES,Potency,"activity change, negative = inhibition"
CC(C)(C)NC(=O)C(=O)NNC(=O)C12CC3CC(CC(C3)C1)C2,"inconclusive: 35.5 µM [inhibitor, single point]",
Cc1ccc(NC(=S)c2ccc(N(C)C)cc2)cc1,active: 10 µM,
COC(=O)c1ccc(Sc2nnnn2-c2ccccc2)c([N+](=O)[O-])c1,active: 12.6 µM,
Cc1ccc(NC(=S)N(CCCN2CCOCC2)Cc2ccco2)cc1Cl,"inconclusive: 22.4 µM [inhibitor, single point]",
N#C/C(=C/c1ccc(CNC(=O)C(=O)Nc2cc(Cl)cc(Cl)c2)o1)C(=O)NCc1cccnc1,,inactive: 12% [at 10 µM]
O=S(=O)(Nc1ccc2c(c1)OCCO2)c1ccc(F)cc1,,inactive: 0.144%
O=C1CN(C(=O)CSc2nc3cc(Cl)ccc3c(=O)n2Cc2ccccc2)c2ccccc2N1,"inconclusive: 11.2 µM [inhibitor, partial curve, poor fit]",
CCn1c(-c2ccc3[nH]c(C)c(C)c3c2)n[nH]c1=S,active: 11.2 µM,
COc1cccc(/C=N/NC(=S)NCCc2ccccc2)c1OC,active: 11.2 µM,
Cc1cc(C(=O)Nc2ccccn2)cs1,active: 11.2 µM,
Cc1ccc(CNC(=O)Cn2ncn3cccc3c2=O)cc1,"inconclusive: 14.1 µM [inhibitor, single point]",
CC(C)(C)NC(=O)C12CCC(C)(c3nc4ccccc4nc31)C2(C)C (stereo not given),"inconclusive: 35.5 µM [inhibitor, single point]",
C=CCN1C(=O)/C(=C/c2ccccc2)S/C1=N/c1nccs1,"inconclusive: 11.2 µM [inhibitor, single point]",
CC1=CC(C)(C)N(S(=O)(=O)c2ccc(C)cc2)c2ccc(C)cc21,"inconclusive: 10 µM [inhibitor, partial curve, poor fit]",
O=C(OC(c1ccc(NS(=O)(=O)c2ccccc2)cc1)(C(F)(F)F)C(F)(F)F)c1ccccc1,active: 14.1 µM,
CC(C)(C)c1cc(C(=O)NNC(=O)Nc2ccccc2)n(Cc2ccccc2)n1,active: 0.0631 µM,
COc1ccc(NC(=O)c2sccc2SCc2cccc(C(F)(F)F)c2)cc1,"inconclusive: 5.62 µM [activator, partial curve, poor fit]",
O=C(O)c1cc(Oc2ccc([N+](=O)[O-])cc2)cc(Oc2ccc([N+](=O)[O-])cc2)c1,,inactive: 10.4%
CC(=O)c1ccc(NC(=S)NCCc2ccc(S(N)(=O)=O)cc2)cc1,"inconclusive: 20 µM [activator, single point]",
O=C(c1cc2c(=O)oc3ccccc3c2s1)N1CCOCC1,,inactive: 4.69%

# Part of the list above in order of heavy-atom count, smallest number first:
SMILES,Potency,"activity change, negative = inhibition"
C=CCN1C(=O)/C(=C/c2ccccc2)S/C1=N/c1nccs1,"inconclusive: 11.2 µM [inhibitor, single point]",
COC(=O)c1ccc(Sc2nnnn2-c2ccccc2)c([N+](=O)[O-])c1,active: 12.6 µM,
Cc1ccc(NC(=S)N(CCCN2CCOCC2)Cc2ccco2)cc1Cl,"inconclusive: 22.4 µM [inhibitor, single point]",
